These are yes or no findings as the source states them, for the method shown. In cells and extracts the contact can be indirect. These calls come from enrichment with a bait or labelling near it, and not all partners need be listed. Sequences can lack the tags named with a protein.
T1: Flag-tagged GPX8 (Glutathione Peroxidase 8) (UniProt Q8TED1)
T1 sequence: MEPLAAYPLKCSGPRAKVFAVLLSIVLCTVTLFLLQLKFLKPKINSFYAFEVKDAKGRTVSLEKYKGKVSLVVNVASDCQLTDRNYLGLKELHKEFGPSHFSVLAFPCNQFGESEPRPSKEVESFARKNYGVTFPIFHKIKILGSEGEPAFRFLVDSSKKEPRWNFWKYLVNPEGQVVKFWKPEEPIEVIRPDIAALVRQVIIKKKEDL

The chains behind the UniProt entries cited, without tags or fusion partners. Residues count along the entry.
UniProt P11142: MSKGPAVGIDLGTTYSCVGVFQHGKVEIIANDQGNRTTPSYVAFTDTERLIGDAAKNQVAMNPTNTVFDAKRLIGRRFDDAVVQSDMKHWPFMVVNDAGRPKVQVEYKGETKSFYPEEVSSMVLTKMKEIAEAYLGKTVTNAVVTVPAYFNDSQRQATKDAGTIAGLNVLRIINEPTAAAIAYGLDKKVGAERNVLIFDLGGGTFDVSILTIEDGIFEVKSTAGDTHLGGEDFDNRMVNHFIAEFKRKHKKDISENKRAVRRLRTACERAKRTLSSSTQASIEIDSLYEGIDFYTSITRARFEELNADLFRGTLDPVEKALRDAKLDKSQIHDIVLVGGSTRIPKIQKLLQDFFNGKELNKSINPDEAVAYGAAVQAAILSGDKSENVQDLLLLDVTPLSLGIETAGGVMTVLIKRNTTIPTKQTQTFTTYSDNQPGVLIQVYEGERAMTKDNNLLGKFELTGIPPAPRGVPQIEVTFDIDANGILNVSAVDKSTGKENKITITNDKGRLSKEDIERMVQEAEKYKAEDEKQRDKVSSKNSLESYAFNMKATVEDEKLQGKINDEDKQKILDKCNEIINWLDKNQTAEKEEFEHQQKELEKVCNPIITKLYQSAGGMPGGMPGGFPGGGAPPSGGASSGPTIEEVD
UniProt Q01844: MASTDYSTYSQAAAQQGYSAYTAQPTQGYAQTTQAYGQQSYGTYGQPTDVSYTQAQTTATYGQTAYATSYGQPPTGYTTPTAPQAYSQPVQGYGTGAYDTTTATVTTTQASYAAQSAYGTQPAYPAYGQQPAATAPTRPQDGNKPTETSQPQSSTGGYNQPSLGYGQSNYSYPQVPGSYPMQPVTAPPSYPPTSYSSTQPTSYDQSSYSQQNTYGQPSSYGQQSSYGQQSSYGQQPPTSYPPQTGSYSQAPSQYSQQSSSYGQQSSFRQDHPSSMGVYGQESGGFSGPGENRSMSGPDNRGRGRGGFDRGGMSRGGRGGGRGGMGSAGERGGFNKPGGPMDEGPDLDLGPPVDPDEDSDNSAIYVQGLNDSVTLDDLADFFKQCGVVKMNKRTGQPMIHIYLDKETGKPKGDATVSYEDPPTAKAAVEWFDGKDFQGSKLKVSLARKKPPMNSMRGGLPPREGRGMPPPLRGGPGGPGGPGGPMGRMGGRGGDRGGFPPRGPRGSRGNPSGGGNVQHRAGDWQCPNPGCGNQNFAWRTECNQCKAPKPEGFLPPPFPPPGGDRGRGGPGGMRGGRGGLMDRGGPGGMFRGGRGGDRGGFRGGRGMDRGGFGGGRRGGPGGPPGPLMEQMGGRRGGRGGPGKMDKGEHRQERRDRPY
UniProt P02671, residues 20-866: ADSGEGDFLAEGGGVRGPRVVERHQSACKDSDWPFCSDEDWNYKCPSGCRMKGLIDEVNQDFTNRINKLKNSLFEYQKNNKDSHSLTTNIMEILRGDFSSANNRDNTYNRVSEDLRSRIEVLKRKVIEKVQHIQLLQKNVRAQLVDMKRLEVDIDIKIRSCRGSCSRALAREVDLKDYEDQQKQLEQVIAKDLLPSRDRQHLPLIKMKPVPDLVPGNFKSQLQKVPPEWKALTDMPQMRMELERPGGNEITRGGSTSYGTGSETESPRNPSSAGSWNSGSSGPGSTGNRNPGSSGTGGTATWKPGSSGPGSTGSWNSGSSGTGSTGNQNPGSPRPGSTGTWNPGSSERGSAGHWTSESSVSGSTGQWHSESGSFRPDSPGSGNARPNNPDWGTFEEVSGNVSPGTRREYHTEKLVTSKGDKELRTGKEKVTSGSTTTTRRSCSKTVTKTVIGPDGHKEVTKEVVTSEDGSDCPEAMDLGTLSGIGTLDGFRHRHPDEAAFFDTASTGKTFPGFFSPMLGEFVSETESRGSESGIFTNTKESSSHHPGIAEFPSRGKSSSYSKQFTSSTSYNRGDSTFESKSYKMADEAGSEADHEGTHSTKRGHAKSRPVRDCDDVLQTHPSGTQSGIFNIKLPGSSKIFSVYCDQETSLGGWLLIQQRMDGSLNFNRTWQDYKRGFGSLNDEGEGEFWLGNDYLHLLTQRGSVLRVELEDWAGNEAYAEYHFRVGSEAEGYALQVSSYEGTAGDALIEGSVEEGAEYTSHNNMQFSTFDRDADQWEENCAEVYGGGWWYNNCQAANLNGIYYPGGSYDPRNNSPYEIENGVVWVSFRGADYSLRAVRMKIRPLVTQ
UniProt P14618: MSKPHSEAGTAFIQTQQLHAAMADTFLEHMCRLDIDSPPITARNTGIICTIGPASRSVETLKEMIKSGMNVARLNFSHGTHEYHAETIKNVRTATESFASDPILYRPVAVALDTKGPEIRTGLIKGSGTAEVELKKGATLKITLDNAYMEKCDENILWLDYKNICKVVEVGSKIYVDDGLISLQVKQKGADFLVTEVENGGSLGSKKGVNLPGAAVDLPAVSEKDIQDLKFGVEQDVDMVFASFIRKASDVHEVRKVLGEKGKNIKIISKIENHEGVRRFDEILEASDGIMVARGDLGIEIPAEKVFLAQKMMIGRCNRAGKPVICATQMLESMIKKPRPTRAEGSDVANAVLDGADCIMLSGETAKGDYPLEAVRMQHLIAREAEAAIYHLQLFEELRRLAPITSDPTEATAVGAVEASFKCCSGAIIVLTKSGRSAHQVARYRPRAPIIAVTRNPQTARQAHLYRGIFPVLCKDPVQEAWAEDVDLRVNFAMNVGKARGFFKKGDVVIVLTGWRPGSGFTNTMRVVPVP

B1: HNRNPM (protein, UniProt P52272 1-730)
chain: MAAGVEAAAEVAATEIKMEEESGAPGVPSGNGAPGPKGEGERPAQNEKRKEKNIKRGGNRFEPYANPTKRYRAFITNIPFDVKWQSLKDLVKEKVGEVTYVELLMDAEGKSRGCAVVEFKMEESMKKAAEVLNKHSLSGRPLKVKEDPDGEHARRAMQKVMATTGGMGMGPGGPGMITIPPSILNNPNIPNEIIHALQAGRLGSTVFVANLDYKVGWKKLKEVFSMAGVVVRADILEDKDGKSRGIGTVTFEQSIEAVQAISMFNGQLLFDRPMHVKMDERALPKGDFFPPERPQQLPHGLGGIGMGLGPGGQPIDANHLNKGIGMGNIGPAGMGMEGIGFGINKMGGMEGPFGGGMENMGRFGSGMNMGRINEILSNALKRGEIIAKQGGGGGGGSVPGIERMGPGIDRLGGAGMERMGAGLGHGMDRVGSEIERMGLVMDRMGSVERMGSGIERMGPLGLDHMASSIERMGQTMERIGSGVERMGAGMGFGLERMAAPIDRVGQTIERMGSGVERMGPAIERMGLSMERMVPAGMGAGLERMGPVMDRMATGLERMGANNLERMGLERMGANSLERMGLERMGANSLERMGPAMGPALGAGIERMGLAMGGGGGASFDRAIEMERGNFGGSFAGSFGGAGGHAPGVARKACQIFVRNLPFDFTWKMLKDKFNECGHVLYADIKMENGKSKGCGVVKFESPEVAERACRMMNGMKLSGREIDVRIDRNA
B2: NONO (protein, UniProt Q15233 1-471)
chain: MQSNKTFNLEKQNHTPRKHHQHHHQQQHHQQQQQQPPPPPIPANGQQASSQNEGLTIDLKNFRKPGEKTFTQRSRLFVGNLPPDITEEEMRKLFEKYGKAGEVFIHKDKGFGFIRLETRTLAEIAKVELDNMPLRGKQLRVRFACHSASLTVRNLPQYVSNELLEEAFSVFGQVERAVVIVDDRGRPSGKGIVEFSGKPAARKALDRCSEGSFLLTTFPRPVTVEPMDQLDDEEGLPEKLVIKNQQFHKEREQPPRFAQPGSFEYEYAMRWKALIEMEKQQQDQVDRNIKEAREKLEMEMEAARHEHQVMLMRQDLMRRQEELRRMEELHNQEVQKRKQLELRQEEERRRREEEMRRQQEEMMRRQQEGFKGTFPDAREQEIRMGQMAMGGAMGINNRGAMPPAPVPAGTPAPPGPATMMPDGTLGLTPPTTERFGQAATMEGIGAIGGTPPAFNRAAPGAEFAPNKRRRY
B3: YWHAQ (protein, UniProt P27348 1-245)
chain: MEKTELIQKAKLAEQAERYDDMATCMKAVTEQGAELSNEERNLLSVAYKNVVGGRRSAWRVISSIEQKTDTSDKKLQLIKDYREKVESELRSICTTVLELLDKYLIANATNPESKVFYLKMKGDYFRYLAEVACGDDRKQTIDNSQGAYQEAFDISKKEMQPTHPIRLGLALNFSVFYYEILNNPELACTLAKTAFDEAIAELDTLNEDSYKDSTLIMQLLRDNLTLWTSDSAGEECDAAEGAEN

molecular target: T1, Flag-tagged GPX8 (Glutathione Peroxidase 8); experiment: affinity purification with mass spectrometry; anti-Flag IP from SNU449 or HEK-293T cells transfected with the Flag-tagged GPX8 overexpression plasmid; precipitated proteins analysed by LC-MS/MS

Row | binding | Molecule
1 | binds | 71-kDa heat shock cognate protein (Hsc70) (from UniProt P11142 1-646)
2 | binds | EWSR1 (from UniProt Q01844 1-656)
3 | binds | FGA (from UniProt P02671 20-866)
4 | binds | PKM (from UniProt P14618 1-531)
5 | binds | B1
6 | binds | B2
7 | binds | B3
